# Screening data

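Luminescence from an EWS-FLI1 target-promoter (NR0B1) reporter, set against a CMV-promoter reporter, two days after silencing single genes in TC32 Ewing sarcoma cells. Each siRNA was applied at 20 nM. A z-score of the log NR0B1-over-CMV signal, less the median of siRNAs with the same seed; more negative means a stronger specific loss of the NR0B1 reporter.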

The strongest results of the screen are mostly left out here. Sequences are the guide (antisense) strand, without overhang.

{"strand": "UUAGAGCUAAAAGCUAUGC", "target gene": "RSRP1", "seed-corrected z-score": "-0.09713"}
{"strand": "UCCGGUCAAAUUUCACGGG", "target gene": "COL8A2", "seed-corrected z-score": "0.004985"}
{"strand": "AGAAUGUCCACGAACAUCG", "target gene": "ACSF2", "seed-corrected z-score": "0.2028"}
{"strand": "UUGCCGAACAUCUGCAUGC", "target gene": "CACNA1F", "seed-corrected z-score": "-0.6409"}
{"strand": "UCAUAGUUCAUAUGGAUAG", "target gene": "SLC30A4", "seed-corrected z-score": "0.7325"}
{"strand": "ACAGUGAUAAUUUCAGGUC", "target gene": "LINC00238", "seed-corrected z-score": "-0.071"}
{"strand": "AUCUCGAACACCUCGGUGC", "target gene": "PDGFB", "seed-corrected z-score": "-0.1938"}
{"strand": "AUAUCCAAAGCCGAGAUCU", "target gene": "ACPT", "seed-corrected z-score": "-0.3293"}
{"strand": "UCAUUGAUGAGAUAAUGCC", "target gene": "DST", "seed-corrected z-score": "-0.2324"}
{"strand": "UAGGUGCUACCAAUCGUCU", "target gene": "ADCY6", "seed-corrected z-score": "-0.0715"}
{"strand": "UCAGUACUGGGUGAGAUCC", "target gene": "DMRTC2", "seed-corrected z-score": "0.9347"}
{"strand": "ACCGGGUACAGCAUCAUCU", "target gene": "TMEM121", "seed-corrected z-score": "-0.2099"}
{"strand": "AAACUCACUAGUGUGCUCG", "target gene": "MYBL1", "seed-corrected z-score": "-0.1701"}
{"strand": "AUAUGGUUGUCCAUGGUCU", "target gene": "GSTM1", "seed-corrected z-score": "0.2373"}
{"strand": "UUGCUGAUACCGAUUUUGG", "target gene": "LOC652608", "seed-corrected z-score": "0.06895"}
{"strand": "UCUGGGUCCAACAUACAUG", "target gene": "OR2A4", "seed-corrected z-score": "-0.2539"}
{"strand": "UUAUGUUCCAGAAGUCGAU", "target gene": "KCNC2", "seed-corrected z-score": "-0.5976"}
{"strand": "AAAGACAUAAAUGCCCGGC", "target gene": "LOC644277", "seed-corrected z-score": "-1.275"}
{"strand": "AUUCCUUCCAAUGCAAACU", "target gene": "KIAA2013", "seed-corrected z-score": "-0.8812"}
{"strand": "UUCCAUUCUAACACGGCUC", "target gene": "ZC3H11B", "seed-corrected z-score": "1.796"}
{"strand": "AGAGGUGUAAGGAACAUGG", "target gene": "GPR15", "seed-corrected z-score": "-0.4184"}
{"strand": "UUACUGUCCACCACAAAGA", "target gene": "ARF5", "seed-corrected z-score": "-0.6155"}
{"strand": "UGAACAACCGACUCCAUGC", "target gene": "SLC25A47", "seed-corrected z-score": "0.291"}
{"strand": "UAAAGCUUGAUGUCUGGUC", "target gene": "PARG", "seed-corrected z-score": "0.6671"}
{"strand": "UAUAUUGCUGUCGCAAGGC", "target gene": "WISP3", "seed-corrected z-score": "-0.1054"}
{"strand": "AAUGUCAAAAUGUCCUUCC", "target gene": "CAMKMT", "seed-corrected z-score": "-0.1245"}
{"strand": "AUCCCGAUAAUAUUGAUGA", "target gene": "CYP4F11", "seed-corrected z-score": "0.3306"}
{"strand": "UGAUCUCCAGGUGGGCUUC", "target gene": "FGF21", "seed-corrected z-score": "-0.8647"}
{"strand": "UCUUCGAAUAAUAUGGGCC", "target gene": "SPATA22", "seed-corrected z-score": "0.0731"}
{"strand": "UUAGUAGUCACAUAUGUAC", "target gene": "TMEM106C", "seed-corrected z-score": "0.9428"}
{"strand": "UUGCAGUUCAGUGCCGUCC", "target gene": "TMEM102", "seed-corrected z-score": "0.3894"}
{"strand": "UACUGGGAAAUCAAGUUUG", "target gene": "SLC47A1", "seed-corrected z-score": "-0.4146"}
{"strand": "UGAAUGCUGAGGCGAAUCC", "target gene": "PROSER1", "seed-corrected z-score": "0.1491"}
{"strand": "UACUGAAAGAGUGAUACGC", "target gene": "DCAF4L2", "seed-corrected z-score": "0.02528"}

For reference, 4 entries once more:

* AUCCCGAUAAUAUUGAUGA against CYP4F11 | seed-corrected z-score 0.3306
* UCAGUACUGGGUGAGAUCC against DMRTC2 | seed-corrected z-score 0.9347
* UGAUCUCCAGGUGGGCUUC against FGF21 | seed-corrected z-score -0.8647
* UUGCAGUUCAGUGCCGUCC against TMEM102 | seed-corrected z-score 0.3894

From PubChem BioAssay record AID1159506 (NCATS, 2015).